Results as given in paper doi:10.1101/2022.07.12.499798.

Experiments:
[1] = target: T1, KRP4-nEYFP (rice (Oryza sativa)) (UniProt Q7XDH8); assay: split reporter
T1 sequence: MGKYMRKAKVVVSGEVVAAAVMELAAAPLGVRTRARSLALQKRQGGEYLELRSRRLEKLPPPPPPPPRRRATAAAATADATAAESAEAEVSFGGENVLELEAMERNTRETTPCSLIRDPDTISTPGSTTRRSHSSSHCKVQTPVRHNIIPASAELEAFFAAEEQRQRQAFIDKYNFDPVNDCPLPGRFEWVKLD

[2] = target: T2, KRP5-nEYFP (rice (Oryza sativa)) (UniProt Q283L0); assay: split reporter
T2 sequence: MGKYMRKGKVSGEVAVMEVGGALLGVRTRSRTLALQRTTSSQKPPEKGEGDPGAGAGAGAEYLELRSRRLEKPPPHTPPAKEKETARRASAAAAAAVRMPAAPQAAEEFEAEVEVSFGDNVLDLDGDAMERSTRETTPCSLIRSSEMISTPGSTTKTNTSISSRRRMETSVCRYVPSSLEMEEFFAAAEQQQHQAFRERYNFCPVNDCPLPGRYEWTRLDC

[3] = target: T3, KRP5 (Kip-Related Protein 5), yeast construct (rice (Oryza sativa)) (UniProt Q283L0); assay: two-hybrid
T3 sequence: T2 sequence

[4] = target: T4, KRP4 (Kip-Related Protein 4), yeast construct (rice (Oryza sativa)) (UniProt Q7XDH8); assay: two-hybrid
T4 sequence: T1 sequence

[5] = target: T5, CDKE1, yeast two-hybrid construct (rice (Oryza sativa)) (UniProt Q336M2); assay: two-hybrid
T5 sequence: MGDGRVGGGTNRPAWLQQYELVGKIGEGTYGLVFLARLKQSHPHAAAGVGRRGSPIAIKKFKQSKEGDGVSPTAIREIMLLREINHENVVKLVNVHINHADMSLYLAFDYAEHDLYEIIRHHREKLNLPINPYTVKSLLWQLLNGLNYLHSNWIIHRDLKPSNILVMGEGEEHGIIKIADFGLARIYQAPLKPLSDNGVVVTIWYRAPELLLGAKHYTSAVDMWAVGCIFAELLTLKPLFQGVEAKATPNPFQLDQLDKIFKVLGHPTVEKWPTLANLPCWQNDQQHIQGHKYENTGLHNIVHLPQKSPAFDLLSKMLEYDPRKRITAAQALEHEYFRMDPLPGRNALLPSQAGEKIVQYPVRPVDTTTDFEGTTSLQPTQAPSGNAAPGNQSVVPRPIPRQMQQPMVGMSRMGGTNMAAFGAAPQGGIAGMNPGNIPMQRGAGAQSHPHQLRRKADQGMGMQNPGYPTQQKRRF

[6] = target: T6, CDKB2;1, yeast construct (rice (Oryza sativa)) (UniProt Q0J4I1); assay: two-hybrid
T6 sequence: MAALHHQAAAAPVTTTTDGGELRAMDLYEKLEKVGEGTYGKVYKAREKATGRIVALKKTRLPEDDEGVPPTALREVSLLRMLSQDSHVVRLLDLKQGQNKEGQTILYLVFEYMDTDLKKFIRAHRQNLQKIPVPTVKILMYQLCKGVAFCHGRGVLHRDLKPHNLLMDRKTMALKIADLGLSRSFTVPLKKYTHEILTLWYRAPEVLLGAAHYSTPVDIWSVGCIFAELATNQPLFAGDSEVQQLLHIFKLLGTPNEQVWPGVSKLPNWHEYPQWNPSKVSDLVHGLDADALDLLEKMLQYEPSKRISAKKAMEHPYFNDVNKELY

FB3_(F-box)-cEYFP, truncated FB3 (rice (Oryza sativa)) (domain or fragment)
binding [1]: binds | binding [2]: binds

FB3 (F-box protein 3), yeast two-hybrid prey (rice (Oryza sativa))
binding [3]: binds | binding [4]: binds

CYCD2;1, yeast two-hybrid prey (rice (Oryza sativa))
binding [5]: no binding | binding [6]: binds

Results are given in words; binding and its absence hold for the method and conditions named. For part of these data: Binding can be weak; no strength is given. For part of these data: Binding seen in cells or lysates may run through a third protein.
